Patent US20090143410A1, “Isoxazolines for Controlling Invertebrate Pests” (priority 2005, published 2009)
Some of these results come from one statement about several compounds together.

Assays:
Type in all cases: in vivo
[1] = tested on: diamondback moth (Plutella xylostella); experiment: Test A: control of diamondback moth on radish plant, foliar spray; conditions: sprayed at 250 ppm; neonate larvae on radish plant; 6 days, 25° C., 70% relative humidity; alternative criterion 80% or more mortality
[2] = tested on: Western Flower Thrip (Frankliniellla occidentalis); experiment: Test B: control of Western Flower Thrip on bean plant, contact and/or systemic; conditions: sprayed at 250 ppm; adult thrips on Longio bean plant; 7 days, 25° C., 45-55% relative humidity
[3] = tested on: fall armyworm (Spodoptera frugiperda); experiment: Test C: control of fall armyworm on corn (maize) plant, foliar spray; conditions: sprayed at 250 ppm; 1-day-old larvae on corn (maize) plant; rated as in Test A; alternative criterion 80% or more mortality

Cc1nc(C2=NOC(c3cc(Cl)cc(Cl)c3)(C(F)(F)F)C2)ncc1C(=O)NCC(F)(F)F (stereo not shown) [Compound 1, 2-[5-(3,5-dichlorophenyl)-4,5-dihydro-5-(trifluoromethyl)-3-isoxazolyl]-4-methyl-N-(2,2,2-trifluoroethyl)-5-pyrimidinecarboxamide]
plant protection: feeding damage (20% or less feeding damage or 80% or more mortality) [1]: ≤ 20%

Cc1nc(C2=NOC(c3cc(Cl)cc(Cl)c3)(C(F)(F)F)C2)ncc1C(=O)NCc1ccccn1 (stereo not shown) [Compound 2, 2-[5-(3,5-dichlorophenyl)-4,5-dihydro-5-(trifluoromethyl)-3-isoxazolyl]-4-methyl-N-(2-pyridinylmethyl)-5-pyrimidinecarboxamide]
pest control: mortality [2]: at least 80%
plant protection: feeding damage (20% or less feeding damage or 80% or more mortality) [1]: ≤ 20%

O=C(NCc1ccccn1)c1cnc(C2=NOC(c3cc(Cl)cc(Cl)c3)(C(F)(F)F)C2)nc1C(F)(F)F (stereo not shown) [Compound 7, 2-[5-(3,5-dichlorophenyl)-4,5-dihydro-5-(trifluoromethyl)-3-isoxazolyl]-N-(2-pyridinylmethyl)-4-(trifluoromethyl)-5-pyrimidinecarboxamide]
plant protection: feeding damage (20% or less feeding damage or 80% or more mortality) [3]: ≤ 20%
pest control: mortality [2]: at least 80%
plant protection: feeding damage (20% or less feeding damage or 80% or more mortality) [1]: ≤ 20%

O=C(NCC(F)(F)F)c1cnc(C2=NOC(c3cc(Cl)cc(Cl)c3)(C(F)(F)F)C2)nc1C(F)(F)F (stereo not shown) [Compound 10, 2-[5-(3,5-dichlorophenyl)-4,5-dihydro-5-(trifluoromethyl)-3-isoxazolyl]-N-(2,2,2-trifluoroethyl)-4-(trifluoromethyl)-5-pyrimidinecarboxamide]
plant protection: feeding damage (20% or less feeding damage or 80% or more mortality) [3]: ≤ 20%
pest control: mortality [2]: at least 80%
plant protection: feeding damage (20% or less feeding damage or 80% or more mortality) [1]: ≤ 20%

FC(F)(F)c1nc(C2=NOC(c3cc(Cl)cc(Cl)c3)(C(F)(F)F)C2)ncc1-n1cncn1 (stereo not shown) [Compound 12, 2-[5-(3,5-dichlorophenyl)-4,5-dihydro-5-(trifluoromethyl)-3-isoxazolyl]-5-(1H-1,2,4-triazol-1-yl)-4-(trifluoromethyl)pyrimidine]
plant protection: feeding damage (20% or less feeding damage or 80% or more mortality) [1]: ≤ 20%
